The target in this experiment is T1, Irf8 (mouse (endogenous; cells of the co-IP not named)) (UniProt P23611).
T1 sequence: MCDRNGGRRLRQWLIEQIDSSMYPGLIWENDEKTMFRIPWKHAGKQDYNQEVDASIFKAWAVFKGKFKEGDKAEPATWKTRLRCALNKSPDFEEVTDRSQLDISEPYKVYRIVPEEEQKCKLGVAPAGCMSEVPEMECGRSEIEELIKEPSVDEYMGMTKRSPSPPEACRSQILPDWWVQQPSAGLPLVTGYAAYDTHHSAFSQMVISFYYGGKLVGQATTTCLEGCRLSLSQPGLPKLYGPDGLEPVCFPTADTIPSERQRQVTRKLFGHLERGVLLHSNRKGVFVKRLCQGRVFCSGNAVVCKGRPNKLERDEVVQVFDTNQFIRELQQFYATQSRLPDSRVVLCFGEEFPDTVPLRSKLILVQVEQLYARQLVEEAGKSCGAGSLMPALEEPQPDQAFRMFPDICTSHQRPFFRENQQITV
As to the kind of experiment: co-IP; endogenous proteins in whole-cell lysate (50 mM Tris-HCl, 1% Nonidet-P40, 0.1% SDS, 150 mM NaCl); 1000 ug protein with antibodies against Aff3ir-ORF2, Irf5 or Irf8 at 4 °C for 12 hr, Protein A/G PLUS-Agarose beads, five washes with lysis buffer, Western blot. Background: Immunoblotting shows a protein as a band on a membrane.

These are yes or no findings as the source states them, for the method shown. Binding seen in cells or lysates may run through a third protein. Binding can be weak; no strength is given.

As to Aff3ir-ORF2 (mouse), the binding result is on record as “binds”.
